These are yes or no findings as the source states them, for the method shown. In cells and extracts the contact can be indirect. Some entries that bind do so weakly or less than the wild type. Tags and fused reporters may be left off the sequences shown.
Target: T1, Flag-IRF7 (mouse) (UniProt P70434)
T1 sequence: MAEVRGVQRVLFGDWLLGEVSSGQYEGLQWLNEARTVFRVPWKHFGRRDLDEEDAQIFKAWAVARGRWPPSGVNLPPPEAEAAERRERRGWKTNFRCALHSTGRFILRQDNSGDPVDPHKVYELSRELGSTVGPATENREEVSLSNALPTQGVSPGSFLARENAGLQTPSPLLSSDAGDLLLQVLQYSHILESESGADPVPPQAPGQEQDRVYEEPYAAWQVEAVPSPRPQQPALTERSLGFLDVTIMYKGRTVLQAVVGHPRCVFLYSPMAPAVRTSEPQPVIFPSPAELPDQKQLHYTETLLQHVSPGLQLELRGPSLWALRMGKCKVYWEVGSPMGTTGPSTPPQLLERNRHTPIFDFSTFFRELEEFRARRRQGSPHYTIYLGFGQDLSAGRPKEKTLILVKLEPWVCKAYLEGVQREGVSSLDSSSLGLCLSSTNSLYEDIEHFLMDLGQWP
Experiment: co-IP; HEK293T cells co-transfected with Flag-IRF7 and HA-tagged p200 family protein or mutant; lysate immunoprecipitated with anti-Flag, immunoblot with anti-HA

Chains of the proteins cited; added tags and fusions are not shown.
UniProt Q16666: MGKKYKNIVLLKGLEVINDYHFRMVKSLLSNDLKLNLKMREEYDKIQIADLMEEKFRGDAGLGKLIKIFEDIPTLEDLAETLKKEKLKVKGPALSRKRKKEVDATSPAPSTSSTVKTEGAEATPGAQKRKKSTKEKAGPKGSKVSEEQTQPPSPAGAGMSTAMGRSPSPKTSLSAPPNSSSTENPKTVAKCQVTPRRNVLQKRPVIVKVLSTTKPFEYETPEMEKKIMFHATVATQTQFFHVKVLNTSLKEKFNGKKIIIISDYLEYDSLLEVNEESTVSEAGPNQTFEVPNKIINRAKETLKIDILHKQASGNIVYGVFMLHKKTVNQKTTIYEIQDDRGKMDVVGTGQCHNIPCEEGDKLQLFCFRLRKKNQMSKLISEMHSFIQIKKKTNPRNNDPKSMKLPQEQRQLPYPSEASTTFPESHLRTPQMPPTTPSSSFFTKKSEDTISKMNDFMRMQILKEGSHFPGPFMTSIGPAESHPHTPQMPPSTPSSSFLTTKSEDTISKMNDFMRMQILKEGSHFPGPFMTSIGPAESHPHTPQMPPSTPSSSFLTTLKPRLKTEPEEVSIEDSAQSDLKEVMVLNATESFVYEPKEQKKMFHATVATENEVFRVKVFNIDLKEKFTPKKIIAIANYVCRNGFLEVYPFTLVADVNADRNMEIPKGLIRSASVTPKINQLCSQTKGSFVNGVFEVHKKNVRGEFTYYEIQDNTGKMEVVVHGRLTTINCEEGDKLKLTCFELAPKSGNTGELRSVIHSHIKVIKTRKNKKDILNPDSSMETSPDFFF

**Q.** How did the binding turn out when HA-IFI16 (from UniProt Q16666 1-785) was run?
**A.** binds
